Values of other authors in patent US10786467B1, “Shelf stable dosage of dessicated sugar matrix infused with gingerol and shogaol” (Enteral Health and Nutrition LLC, priority 2011, dated 2020).

Conditions: pungency

Row | SMILES | Scoville Heat Units
1 | CCCCC[C@H](O)CC(=O)CCc1ccc(O)c(OC)c1 [gingerol] | 60,000 SHU
2 | CCCCC/C=C/C(=O)CCc1ccc(O)c(OC)c1 [shogaol] | 160,000 SHU
